# According to PubChem BioAssay AID504847 (National Center for Advancing Translational Sciences (NCATS), 2011):
# Protein sequences, listed by entry. Tags and fused reporters are not part of them. Lines headed by an entry give the natural chain unless they say otherwise; changes in a name come on top.
# UniProt P11473: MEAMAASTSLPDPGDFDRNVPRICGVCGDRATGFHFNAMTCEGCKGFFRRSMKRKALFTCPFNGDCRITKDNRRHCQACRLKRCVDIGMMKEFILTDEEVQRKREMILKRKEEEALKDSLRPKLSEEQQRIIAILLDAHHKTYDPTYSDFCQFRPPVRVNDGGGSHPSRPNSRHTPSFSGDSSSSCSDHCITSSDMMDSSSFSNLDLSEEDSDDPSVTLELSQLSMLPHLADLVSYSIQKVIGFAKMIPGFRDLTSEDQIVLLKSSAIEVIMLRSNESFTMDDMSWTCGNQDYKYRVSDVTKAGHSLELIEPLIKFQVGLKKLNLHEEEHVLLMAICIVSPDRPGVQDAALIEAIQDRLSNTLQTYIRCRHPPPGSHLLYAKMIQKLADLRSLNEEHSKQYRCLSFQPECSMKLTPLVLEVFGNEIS
# Values joined by “and” are separate entries in the source; they are usually repeats but may differ in a detail not shown here. Equal values may be shown once. Screen size: about 400,000 compounds; about 3,700 (0.93%) were called active. Inconclusive results, whose numbers are uncertain, are shown with a selection of clear calls. Calls follow the shape of the dose curve; as a rule, active = well fitted inhibition curve with a large enough effect; inconclusive = small, poorly fitted or top-dose-only effect, or another doubt; inactive = no such curve, though single readings can be large or run the other way. Potencies beside an inconclusive call are fits to weak or partial responses and may not hold up.
# Biological target: Vitamin D3 receptor (Homo sapiens) (UniProt P11473)
# Assay: Inhibitors of the vitamin D receptor (VDR): qHTS
# Conditions: VDR-SRC2-3 peptide fluorescence polarization, 2 h; max response, negative = inhibition: hits give low values
# Procedure, shortened: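 VDR–SRC2-3 interaction, FP format. Cmpds 23 nl via pintool, brief spin, 2 h ambient incubation.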
# % is scaled to controls: 0 for no effect and ±100 for the full control effect; potency is read from the fitted curve at half-maximal effect.
Compound,Potency,"max response, negative = inhibition"
CCOC(=O)c1c(NC(=O)c2cc(-c3ccc(OC)cc3)on2)sc(C)c1C,"inconclusive: 89.1 µM [inhibitor, single point]",–
Cc1ccc2nc(Cl)c(/C=N/NC(=O)c3ccccc3O)cc2c1,–,inactive: -1.49%
CCn1nnnc1NC(=O)c1cc(OC)c(OC)c(OC)c1,"inconclusive: 70.8 µM [inhibitor, single point]",–
COc1ccc(C(=O)c2ccc(N3CCOCC3)cc2)c(OC)c1,"inconclusive: 89.1 µM [inhibitor, partial curve, poor fit]",–
COc1ccc(CCNC(=O)CC(=O)N/N=C/c2ccc(Br)cc2)cc1OC,–,inactive: -13.1%
CC(C)(C)C1C/C(=C/c2ccccn2)C(=O)/C(=C/c2ccccn2)C1 (configuration not stated),"inconclusive: 3.98 µM [inhibitor, full curve, poor fit]",–
S=C1NC(c2cccs2)=CC(c2ccc(Br)cc2)N1 (configuration not stated),"inconclusive: 89.1 µM [inhibitor, single point]",–
CCc1ccccc1NC(=O)Cc1c(C(=O)O)[nH]c2ccc(Cl)cc12,"inconclusive: 89.1 µM [inhibitor, partial curve, poor fit]",–
COC(=O)C1=C(C(=O)OC)C(C(=O)OC)C(C(=O)OC)C(C(=O)OC)(C(=O)OC)C(C(=O)OC)=C1C(=O)OC (configuration not stated),active: 39.8 µM,–
CCOC(=O)/C(=C\c1ccc(OC)c(OC)c1)C(=O)c1cccnc1,"inconclusive: 70.8 µM [inhibitor, partial curve, poor fit]",–
COc1ccc(CCNC(=O)c2ccc([N+](=O)[O-])cc2Cl)cc1OC,–,inactive: -2.26%
CN1CC=C2C(C#N)=C(N)C(C#N)(C#N)[C@H](c3ccoc3)[C@H]2C1,"inconclusive: 6.31 µM [inhibitor, partial curve, poor fit]",–
Cc1cccc(CS(=O)(=O)c2ncc(Cl)c(C(=O)NCc3ccccc3)n2)c1,active: 22.4 µM and active: 15.8 µM,–
Cc1ccc(F)cc1NC(=O)N1CCN(C2c3ccccc3-c3ccccc32)CC1,–,inactive: -5.19%
Cc1cc(O)c(C(C)C)cc1Cl,"inconclusive: 50.1 µM [inhibitor, partial curve, poor fit]",–
COc1cccc(NC(=S)N/N=C2/CCCCc3ccccc32)c1,–,inactive: -5.42%
Cc1cc(/C=N/NS(=O)(=O)c2ccc(F)c(Cl)c2)no1,"inconclusive: 89.1 µM [inhibitor, single point]",–
COc1ccccc1C(=O)Nc1ccccc1C(=O)Nc1ccccc1,"inconclusive: 70.8 µM [inhibitor, partial curve]",–
Clc1ccccc1-c1ccc2ncnc(N3CCNCC3)c2c1,"inconclusive: 39.8 µM [inhibitor, partial curve, poor fit]",–
C[N+]12CCCCC1C(COC(=O)c1ccc3c(c1)OCO3)CCC2 (configuration not stated),–,inactive: -14.7%
CCOc1ccc(/C=C/c2[nH]c(=O)[nH]c(=O)c2[N+](=O)[O-])cc1,"inconclusive: 79.4 µM [inhibitor, partial curve]",–

# An excerpt of the results above:
Compound,Potency,"max response, negative = inhibition"
COc1cccc(NC(=S)N/N=C2/CCCCc3ccccc32)c1,–,inactive: -5.42%
Cc1cc(/C=N/NS(=O)(=O)c2ccc(F)c(Cl)c2)no1,"inconclusive: 89.1 µM [inhibitor, single point]",–

# Following part

Compound,Potency,"max response, negative = inhibition"
CCOC(=O)c1nnc2c(Br)c(-c3ccccc3)nn2c1C,"inconclusive: 39.8 µM [inhibitor, single point]",–
CCC(=C/c1sc2ccc3ccccc3c2[n+]1C)/C=C1\Sc2ccc3ccccc3c2N1C,"inconclusive: 20 µM [inhibitor, single point]",–
O=C(Nn1cnnc1)c1ccc(F)c(S(=O)(=O)N2CCCCC2)c1,"inconclusive: 79.4 µM [inhibitor, single point]",–
CC(C)C(=O)Nc1ccc2nc(SCCOc3ccccc3)sc2c1,–,inactive: 4.57%
Cc1ccc(N2CCN(C(=O)c3cn(C)c4ccc(S(=O)(=O)N(C)C5CCCCC5)cc4c3=O)CC2C)cc1 (configuration not stated),–,inactive: -2.89%
CCOC(=O)C1=C(O)/C(=C/c2ccc(OCC(=O)O)c(OCC)c2)SC1=Nc1ccccc1,"inconclusive: 89.1 µM [inhibitor, single point]",–
CCc1ccc(NC(=O)c2ccc3c(c2)C(=O)N(Cc2ccco2)C3=O)cc1,"inconclusive: 56.2 µM [inhibitor, partial curve, poor fit]",–
Cc1cccc(CNC(=O)c2ccc(Cn3c(=O)c4cccn4c4cccnc43)cc2)c1,–,inactive: -0.775%
COCCCn1c(SCC(=O)NC2CCCC2)nnc1-c1ccncc1,"inconclusive: 79.4 µM [inhibitor, single point]",–
Cc1ccc(-c2csc(N/N=C/c3ccco3)n2)cc1,–,inactive: 1.65%
O=C1C=CC2(OCCCO2)C(Br)=C1CO,"inconclusive: 39.8 µM [inhibitor, full curve]",–
COc1ccccc1NC(=S)N1CCN(C(c2ccccc2)c2ccccc2)CC1,"inconclusive: 79.4 µM [inhibitor, partial curve]",–
CC(CN1CC(=O)NC(=O)C1)N1CC(=O)NC(=O)C1 (configuration not stated),"inconclusive: 35.5 µM [inhibitor, partial curve]",–
COc1ccc(C(Nc2cc(C)ccn2)c2ccc3ccc(C)nc3c2O)cc1 (configuration not stated),"inconclusive: 56.2 µM [inhibitor, partial curve, poor fit]",–
O=C(Nc1nc(-c2ccccn2)cs1)c1cc(S(=O)(=O)N2CCOCC2)ccc1F,–,inactive: 29.5%
Cc1cccc([C@H]2[C@@H]3C=CCC[C@@H]3C(=O)N2Cc2ccccc2)c1,"inconclusive: 89.1 µM [inhibitor, partial curve]",–
O=Cc1cn(CCC(=O)O)nc1-c1cccc(Br)c1,–,inactive: -18%
O=C(NNC(=S)NC(=O)c1sc2ccccc2c1Cl)c1ccc(Cl)cc1,"inconclusive: 89.1 µM [inhibitor, single point]",–
Cc1cccc(S(=O)(=O)c2cn(Cc3ccccc3)c3cc(N4CCCCC4C)c(F)cc3c2=O)c1 (configuration not stated),–,inactive: -1.55%
CSc1nnc(C(C)(C)C)c(=O)n1/N=C/c1ccc(Cl)cc1,–,inactive: 9.18%
CC(C)(C)c1ccc(C(=O)CCCN2CCC(OC(c3ccccc3)c3ccccc3)CC2)cc1,–,inactive: 6.02% and inactive: 1.99%
